Assay results: patent CN108948203A
Results are given in words; binding and its absence hold for the method and conditions named. Some binding calls cover weakened binding; strength is not graded here.

Sequences of proteins named here, by UniProt entry; tags and fusion partners are left off. Residues count along the entry.
UniProt Q15116, residues 25-170: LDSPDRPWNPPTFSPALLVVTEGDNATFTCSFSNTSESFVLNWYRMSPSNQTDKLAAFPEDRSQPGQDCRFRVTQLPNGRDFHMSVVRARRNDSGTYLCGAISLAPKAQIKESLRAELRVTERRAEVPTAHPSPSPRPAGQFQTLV

Key:
[1] = biological target: 人PD-1胞外结构域的重组蛋白(PD-1) (human) (UniProt Q15116); experiment: Indirect ELISA (legend of figure 2)
[2] = biological target: 人PD-1胞外结构域的重组蛋白(PD-1) (human) (UniProt Q15116); experiment: Indirect ELISA, PD-1 coated at 1 μg/mL, goat anti-rabbit IgG-HRP

B1: NJDT003 (antibody)
heavy: QSVEESGGRLVTPGTPLTLTCTVSGFSLNSYNMNWVRQAPGKGLEWIGTIGKSGTTYFASWARGRFTISRTSTTVDLKMTSPTTEDTATYFCARDFAVDVGWGPGTLVTVSSGQPKAPSVFPLAPCCGDTPSSTVTLGCLVKGYLPEPVTVTWNSGTLTNGVRTFPSVRQSSGLYSLSSVVSVTSSSQPVTCNVAHPATNTKVDKTVAPSTCSKPMCPPPELPGGPSVFIFPPKPKDTLMISRTPEVTCVVVDVSQDDPEVQFTWYINNEQVRTARPPLREQQFNSTIRVVSTLPIAHQDWLRGKEFKCKVHNKALPAPIEKTISKARGQPLEPKVYTMGPPREELSSRSVSLTCMINGFYPSDISVEWEKNGKAEDNYKTTPTVLDSDGSYFLYSKLSVPTSEWQRGDVFTCSVMHEALHNHYTQKSISRSPGK
light: ADVVMTQTPSPVSAAVGGTVTISCQSSESVVDNDYLSWYQQKPGQPPKVLIYEISKLASGVPSRFSGSGSGTQFTLTISGVQCDDAATYYCAGAYASNRRAFGGGTEVVVKGDPVAPTVLIFPPAADQVATGTVTIVCVANKYFPDVTVTWEVDGTTQTTGIENSKTPQNSADCTYNLSSTLTLTSTQYNSHKEYTCKVTQGTTSVVQSFNRGDC
binding [1]: binds | binding [2]: binds
